The other results are listed elsewhere or left out.
Legend:
Test in all cases: log2 fold change, soluble protein after heating vs DMSO (PISA); higher = thermal stabilisation; K562 lysate, 10 uM; active = over 0.2 and 3.5 SD of the protein, either way, in both replicates (recomputed)
[1] = compound: C1=CC=C(C=C1)[C@H](COC2=CC3=C(C=C2)NC(=O)N3)NC(=O)C4=CC=CN(C4=O)CC5=CC(=C(C=C5)F)F
How it was run: (§1)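 Soluble protein was defined as the supernatant remaining after 21,000xg for 90 min, following pooling of heated aliquots and adjustment to 0.5% NP-40 at 4°C. Before that, crude K562 extract at 1 mg/mL protein in PBS pH 7.4 with 1 mM MgCl2 was treated with 10 μM compound for 30 min and heated for 3 min across 48°C-58°C. Quantification used TMTpro 16plex LC-MS/MS with channel sums equalised, and values are log-two fold changes in thermal stability relative to solvent controls from duplicates.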

By UniProt entry, the sequences of proteins in these tests, tags left out. Where a name states a change or a piece, a line headed by the entry shows the natural chain unless it says otherwise.
UniProt P0DPH7, whole entry, looked up: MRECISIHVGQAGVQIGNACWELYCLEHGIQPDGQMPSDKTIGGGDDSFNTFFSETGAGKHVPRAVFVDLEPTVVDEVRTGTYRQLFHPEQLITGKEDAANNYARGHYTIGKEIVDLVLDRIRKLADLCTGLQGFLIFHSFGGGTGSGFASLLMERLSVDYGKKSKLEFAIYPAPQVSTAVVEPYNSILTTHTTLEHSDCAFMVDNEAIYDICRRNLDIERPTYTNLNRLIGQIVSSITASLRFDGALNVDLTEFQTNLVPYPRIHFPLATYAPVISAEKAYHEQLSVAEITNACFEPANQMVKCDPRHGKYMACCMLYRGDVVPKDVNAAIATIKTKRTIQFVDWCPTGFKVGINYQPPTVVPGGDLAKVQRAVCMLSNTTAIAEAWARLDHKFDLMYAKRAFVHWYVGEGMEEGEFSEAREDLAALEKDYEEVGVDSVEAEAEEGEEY
UniProt P68371, whole entry, looked up: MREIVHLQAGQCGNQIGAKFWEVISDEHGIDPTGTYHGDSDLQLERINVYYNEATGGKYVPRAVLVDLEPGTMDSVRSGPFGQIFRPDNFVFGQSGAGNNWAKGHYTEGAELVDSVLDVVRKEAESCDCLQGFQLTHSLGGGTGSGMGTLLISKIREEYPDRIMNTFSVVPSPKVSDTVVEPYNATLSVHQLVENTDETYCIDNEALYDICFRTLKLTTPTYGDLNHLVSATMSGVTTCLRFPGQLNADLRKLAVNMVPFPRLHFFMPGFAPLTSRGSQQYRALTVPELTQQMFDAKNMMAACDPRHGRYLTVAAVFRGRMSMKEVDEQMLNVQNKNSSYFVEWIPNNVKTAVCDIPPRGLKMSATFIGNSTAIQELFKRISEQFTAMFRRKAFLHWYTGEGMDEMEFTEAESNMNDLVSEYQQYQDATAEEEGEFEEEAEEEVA
UniProt P68366, whole entry, looked up: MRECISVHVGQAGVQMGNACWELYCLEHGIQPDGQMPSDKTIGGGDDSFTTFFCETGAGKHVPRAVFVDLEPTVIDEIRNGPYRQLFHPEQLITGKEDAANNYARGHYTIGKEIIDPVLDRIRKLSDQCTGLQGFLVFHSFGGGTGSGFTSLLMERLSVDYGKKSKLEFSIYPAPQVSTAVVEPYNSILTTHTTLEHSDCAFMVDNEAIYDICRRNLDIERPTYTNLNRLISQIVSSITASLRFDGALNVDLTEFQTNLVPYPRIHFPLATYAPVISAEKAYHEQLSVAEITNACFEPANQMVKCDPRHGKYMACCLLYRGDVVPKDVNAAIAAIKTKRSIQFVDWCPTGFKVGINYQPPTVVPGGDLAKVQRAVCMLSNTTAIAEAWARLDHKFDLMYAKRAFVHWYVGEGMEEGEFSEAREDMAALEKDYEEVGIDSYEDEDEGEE
UniProt Q96LJ8: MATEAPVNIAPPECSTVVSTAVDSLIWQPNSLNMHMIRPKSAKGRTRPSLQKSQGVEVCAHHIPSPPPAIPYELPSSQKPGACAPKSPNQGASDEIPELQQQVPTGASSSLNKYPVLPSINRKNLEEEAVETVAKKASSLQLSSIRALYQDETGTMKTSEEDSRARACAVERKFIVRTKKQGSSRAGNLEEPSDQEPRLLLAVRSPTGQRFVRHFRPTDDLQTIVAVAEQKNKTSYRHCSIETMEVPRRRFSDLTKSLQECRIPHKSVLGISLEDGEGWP
UniProt P51965: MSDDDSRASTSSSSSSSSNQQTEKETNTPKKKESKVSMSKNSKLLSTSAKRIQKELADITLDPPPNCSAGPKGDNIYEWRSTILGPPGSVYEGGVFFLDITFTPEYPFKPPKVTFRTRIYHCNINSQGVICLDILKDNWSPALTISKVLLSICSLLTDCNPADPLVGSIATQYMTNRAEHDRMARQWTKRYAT
UniProt Q8NBS9: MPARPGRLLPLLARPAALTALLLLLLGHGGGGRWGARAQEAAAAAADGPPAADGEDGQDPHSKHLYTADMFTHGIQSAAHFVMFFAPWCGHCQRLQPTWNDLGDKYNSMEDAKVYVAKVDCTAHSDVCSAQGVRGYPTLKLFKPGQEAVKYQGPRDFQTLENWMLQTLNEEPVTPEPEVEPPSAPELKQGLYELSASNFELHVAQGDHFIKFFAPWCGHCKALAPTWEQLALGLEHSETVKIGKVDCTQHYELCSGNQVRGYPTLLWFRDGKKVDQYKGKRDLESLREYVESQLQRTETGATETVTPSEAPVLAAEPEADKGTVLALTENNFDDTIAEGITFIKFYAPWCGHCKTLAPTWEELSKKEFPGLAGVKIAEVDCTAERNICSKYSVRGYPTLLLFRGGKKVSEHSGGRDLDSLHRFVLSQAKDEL
UniProt A6NHL2: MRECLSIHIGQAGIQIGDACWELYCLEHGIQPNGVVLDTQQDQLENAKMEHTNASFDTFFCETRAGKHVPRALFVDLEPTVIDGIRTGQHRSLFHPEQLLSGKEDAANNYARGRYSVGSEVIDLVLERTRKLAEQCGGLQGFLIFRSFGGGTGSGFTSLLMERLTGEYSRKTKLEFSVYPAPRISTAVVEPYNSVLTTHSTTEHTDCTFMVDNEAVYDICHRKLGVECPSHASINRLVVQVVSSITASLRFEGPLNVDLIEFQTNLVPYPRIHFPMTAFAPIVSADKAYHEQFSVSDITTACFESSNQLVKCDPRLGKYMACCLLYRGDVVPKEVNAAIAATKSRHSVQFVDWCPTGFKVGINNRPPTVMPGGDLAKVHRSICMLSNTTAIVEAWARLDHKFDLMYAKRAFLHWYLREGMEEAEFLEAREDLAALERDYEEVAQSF
UniProt Q9H3M7: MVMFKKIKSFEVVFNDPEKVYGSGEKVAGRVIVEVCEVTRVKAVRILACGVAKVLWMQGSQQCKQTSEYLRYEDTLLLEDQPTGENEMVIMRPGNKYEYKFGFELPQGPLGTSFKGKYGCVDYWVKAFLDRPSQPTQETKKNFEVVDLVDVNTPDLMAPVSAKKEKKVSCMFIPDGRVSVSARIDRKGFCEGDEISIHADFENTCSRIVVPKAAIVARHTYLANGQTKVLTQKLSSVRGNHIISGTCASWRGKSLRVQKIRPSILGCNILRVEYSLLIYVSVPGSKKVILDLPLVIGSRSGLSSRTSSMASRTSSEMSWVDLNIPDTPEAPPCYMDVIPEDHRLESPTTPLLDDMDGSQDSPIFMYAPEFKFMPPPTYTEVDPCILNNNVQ
UniProt Q9UMX0, whole entry, looked up: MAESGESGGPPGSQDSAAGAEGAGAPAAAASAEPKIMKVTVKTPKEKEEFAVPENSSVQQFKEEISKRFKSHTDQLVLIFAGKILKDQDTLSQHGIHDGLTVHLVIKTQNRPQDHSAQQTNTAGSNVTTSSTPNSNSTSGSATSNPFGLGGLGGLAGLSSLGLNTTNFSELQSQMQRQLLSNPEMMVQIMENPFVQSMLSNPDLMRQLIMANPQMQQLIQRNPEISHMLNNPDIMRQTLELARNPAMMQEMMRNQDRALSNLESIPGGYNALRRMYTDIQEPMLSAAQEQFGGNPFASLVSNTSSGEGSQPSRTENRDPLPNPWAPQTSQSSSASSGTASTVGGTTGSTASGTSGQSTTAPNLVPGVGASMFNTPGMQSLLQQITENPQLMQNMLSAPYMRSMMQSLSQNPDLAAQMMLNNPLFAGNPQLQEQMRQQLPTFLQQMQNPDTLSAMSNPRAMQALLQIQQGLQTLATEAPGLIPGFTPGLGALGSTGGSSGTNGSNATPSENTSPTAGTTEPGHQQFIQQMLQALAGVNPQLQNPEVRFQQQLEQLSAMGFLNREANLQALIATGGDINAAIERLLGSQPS
UniProt P23258, whole entry, looked up: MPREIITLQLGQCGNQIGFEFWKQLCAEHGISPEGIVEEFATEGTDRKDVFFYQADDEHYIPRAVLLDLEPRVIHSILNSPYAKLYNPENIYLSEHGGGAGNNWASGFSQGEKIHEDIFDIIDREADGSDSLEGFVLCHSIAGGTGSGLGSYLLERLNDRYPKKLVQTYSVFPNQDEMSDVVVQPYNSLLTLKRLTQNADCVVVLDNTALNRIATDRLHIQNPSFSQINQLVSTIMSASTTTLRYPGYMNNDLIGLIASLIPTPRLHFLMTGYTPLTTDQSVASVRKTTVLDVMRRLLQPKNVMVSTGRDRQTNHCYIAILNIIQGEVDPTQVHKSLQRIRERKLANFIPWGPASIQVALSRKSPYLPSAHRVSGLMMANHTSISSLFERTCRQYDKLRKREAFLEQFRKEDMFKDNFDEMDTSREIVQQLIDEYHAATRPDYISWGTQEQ
UniProt Q3B726, whole entry, looked up: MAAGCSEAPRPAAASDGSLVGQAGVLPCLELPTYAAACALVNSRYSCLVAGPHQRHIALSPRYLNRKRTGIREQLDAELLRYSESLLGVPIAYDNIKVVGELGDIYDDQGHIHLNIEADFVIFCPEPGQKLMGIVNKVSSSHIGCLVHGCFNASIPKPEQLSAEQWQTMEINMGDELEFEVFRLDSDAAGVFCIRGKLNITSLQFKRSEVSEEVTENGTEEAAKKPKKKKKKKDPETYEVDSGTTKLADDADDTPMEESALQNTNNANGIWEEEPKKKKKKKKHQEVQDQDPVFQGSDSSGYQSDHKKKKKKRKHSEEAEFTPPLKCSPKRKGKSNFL
UniProt Q96RT7, whole entry, looked up: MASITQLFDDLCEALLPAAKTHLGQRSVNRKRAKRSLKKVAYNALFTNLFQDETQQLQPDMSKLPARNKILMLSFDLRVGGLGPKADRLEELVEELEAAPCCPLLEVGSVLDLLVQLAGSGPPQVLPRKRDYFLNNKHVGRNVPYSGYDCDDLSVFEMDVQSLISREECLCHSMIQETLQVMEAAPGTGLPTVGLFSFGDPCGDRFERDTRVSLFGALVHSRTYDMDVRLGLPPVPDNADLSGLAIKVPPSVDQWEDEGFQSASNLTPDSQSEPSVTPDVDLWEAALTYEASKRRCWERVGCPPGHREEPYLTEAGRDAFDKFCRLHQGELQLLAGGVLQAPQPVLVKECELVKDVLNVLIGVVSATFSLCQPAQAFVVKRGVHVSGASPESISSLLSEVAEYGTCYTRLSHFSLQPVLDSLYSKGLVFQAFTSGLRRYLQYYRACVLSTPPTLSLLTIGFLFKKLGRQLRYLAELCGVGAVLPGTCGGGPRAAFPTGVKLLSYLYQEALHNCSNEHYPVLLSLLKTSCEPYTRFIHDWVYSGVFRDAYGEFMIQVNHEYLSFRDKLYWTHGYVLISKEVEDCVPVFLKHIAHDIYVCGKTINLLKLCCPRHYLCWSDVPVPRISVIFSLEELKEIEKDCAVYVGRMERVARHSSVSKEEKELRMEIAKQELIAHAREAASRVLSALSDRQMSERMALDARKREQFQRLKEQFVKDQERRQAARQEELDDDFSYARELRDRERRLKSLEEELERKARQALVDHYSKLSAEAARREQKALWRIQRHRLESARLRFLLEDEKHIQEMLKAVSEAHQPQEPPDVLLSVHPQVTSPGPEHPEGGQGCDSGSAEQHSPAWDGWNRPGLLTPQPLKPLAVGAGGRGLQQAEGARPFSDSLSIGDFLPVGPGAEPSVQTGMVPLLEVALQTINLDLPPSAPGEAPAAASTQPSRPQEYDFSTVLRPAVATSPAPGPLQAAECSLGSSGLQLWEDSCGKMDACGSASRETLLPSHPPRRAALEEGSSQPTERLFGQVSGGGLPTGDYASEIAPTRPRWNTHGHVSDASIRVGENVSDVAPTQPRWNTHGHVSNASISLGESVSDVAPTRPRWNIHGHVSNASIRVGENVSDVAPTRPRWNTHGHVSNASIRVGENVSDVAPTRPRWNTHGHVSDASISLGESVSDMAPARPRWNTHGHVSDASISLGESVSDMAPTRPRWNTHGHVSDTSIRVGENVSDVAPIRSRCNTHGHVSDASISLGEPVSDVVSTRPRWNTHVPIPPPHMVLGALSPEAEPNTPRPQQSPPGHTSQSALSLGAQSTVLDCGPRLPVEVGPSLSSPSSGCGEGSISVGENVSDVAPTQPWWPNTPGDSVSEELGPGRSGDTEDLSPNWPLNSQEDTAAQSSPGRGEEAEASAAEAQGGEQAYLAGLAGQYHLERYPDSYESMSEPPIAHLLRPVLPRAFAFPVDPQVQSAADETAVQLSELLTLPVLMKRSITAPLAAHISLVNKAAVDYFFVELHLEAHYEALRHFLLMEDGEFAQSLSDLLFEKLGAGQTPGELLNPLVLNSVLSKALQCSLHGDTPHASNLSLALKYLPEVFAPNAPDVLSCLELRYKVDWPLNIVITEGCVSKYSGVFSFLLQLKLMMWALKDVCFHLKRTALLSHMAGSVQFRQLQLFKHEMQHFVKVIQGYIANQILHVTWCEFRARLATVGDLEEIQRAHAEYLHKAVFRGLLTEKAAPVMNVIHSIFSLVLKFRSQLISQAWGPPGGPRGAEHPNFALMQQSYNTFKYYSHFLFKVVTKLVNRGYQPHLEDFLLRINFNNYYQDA
UniProt P62256: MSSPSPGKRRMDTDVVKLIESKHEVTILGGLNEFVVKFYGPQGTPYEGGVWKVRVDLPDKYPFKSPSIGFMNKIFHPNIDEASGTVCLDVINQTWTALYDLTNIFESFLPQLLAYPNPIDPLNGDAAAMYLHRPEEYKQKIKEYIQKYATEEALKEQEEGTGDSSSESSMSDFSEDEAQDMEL

[2] = compound: CC1=C(SC2=C1C(=N[C@H](C3=NN=C(N32)C)CC(=O)N)C4=CC=C(C=C4)Cl)C
How it was run: as §1

[3] = compound: CC1=C2C(=CC=C1)N=C(N(C2=O)C3=CC=CC=C3C)CN4C=NC5=C(N=CN=C54)N
How it was run: as §1

[4] = compound: Cc1sc2c(c1C)C(c1ccc(Cl)cc1)=N[C@@H](CC(=O)OC(C)(C)C)c1nnc(C)n1-2
How it was run: as §1

[5] = compound: c1ccc([C@@H]2C[C@H]2NC2CCNCC2)cc1
How it was run: as §1

Measured: log2 fold change

UBQLN4 (UniProt Q9NRR5)
inactive: [1] 0.006 | [2] -0.106 | [3] -0.046 | [4] -0.035 | [5] 0.014

TWNK (UniProt Q96RR1)
inactive: [1] 0.019 | [2] -0.066 | [3] 0.044 | [4] -0.279 | [5] 0.49

UBE2I (UniProt H3BQQ9)
inactive: [1] -0.143 | [2] -0.169 | [3] 0.015 | [4] -0.21 | [5] -0.001

TUBA3C (UniProt P0DPH7)
inactive: [1] 0.012 | [2] 0.022 | [3] 0.029 | [4] -0.017 | [5] -0.074

TUBB4B (UniProt P68371)
inactive: [1] 0.001 | [2] 0.03 | [3] 0.018 | [4] 0.042 | [5] 0.049

TUBGCP4 (UniProt Q9UGJ1)
inactive: [1] -0.005 | [2] 0.019 | [3] 0.012 | [4] -0.027 | [5] -0.007

TUBA4A (UniProt P68366)
inactive: [1] -0.068 | [2] 0.013 | [3] 0.03 | [4] -0.024 | [5] 0.019

UBR5 (UniProt O95071)
inactive: [1] -0.011 | [2] 0.012 | [3] 0.012 | [4] -0.018 | [5] 0.01

UBXN10 (UniProt Q96LJ8)
inactive: [1] -0.032 | [2] 0.048 | [3] 0.056 | [4] 0.095 | [5] 0.022

UBE3D (UniProt Q7Z6J8)
inactive: [1] -0.012 | [2] 0.014 | [3] 0.022 | [4] 0.021 | [5] -0.029

TUBE1 (UniProt Q9UJT0)
inactive: [1] -0.019 | [2] 0.003 | [3] 0.019 | [4] -0.064 | [5] 0.107

UBA5 (UniProt Q9GZZ9)
inactive: [1] -0.041 | [2] 0.006 | [3] -0.003 | [4] 0.004 | [5] 0.028

TUBB3 (UniProt Q13509)
inactive: [1] 0.014 | [2] -0.005 | [3] 0.008 | [4] 0.008 | [5] 0.01

TUBD1 (UniProt Q9UJT1)
inactive: [1] -0.114 | [2] -0.123 | [3] 0.094 | [4] -0.046 | [5] -0.035

UBE2E1 (UniProt P51965)
inactive: [1] 0.02 | [2] 0.009 | [3] -0.099 | [4] -0.1 | [5] 0.023

TXNDC5 (UniProt Q8NBS9)
inactive: [1] 0.059 | [2] 0.005 | [3] -0.023 | [4] 0.017 | [5] -0.004

UBE2N (UniProt P61088)
inactive: [1] -0.004 | [2] -0.016 | [3] -0.027 | [4] 0.001 | [5] -0.001

UBE3A (UniProt Q05086)
inactive: [1] -0.004 | [2] 0.007 | [3] -0.006 | [4] -0.017 | [5] -0.029

TUBAL3 (UniProt A6NHL2)
inactive: [1] -0.034 | [2] -0.051 | [3] 0.045 | [4] -0.189 | [5] -0.255

TWF1 (UniProt Q12792)
inactive: [1] -0.003 | [2] 0.02 | [3] 0.016 | [4] -0.03 | [5] 0.074

U2AF1 isoform 2 (UniProt Q01081)
inactive: [1] 0.036 | [2] -0.007 | [3] -0.026 | [4] -0.039 | [5] 0.084

UBXN1 (UniProt Q04323)
inactive: [1] 0.017 | [2] 0.017 | [3] -0.003 | [4] 0.035 | [5] -0.025

UBE3B (UniProt Q7Z3V4)
inactive: [1] -0.085 | [2] -0.144 | [3] -0.047 | [4] -0.045 | [5] 0.078

UBAP2L isoform 1 (UniProt Q14157)
inactive: [1] -0.101 | [2] -0.087

UBAP2L isoform 5 (UniProt Q14157)
inactive: [1] -0.047 | [2] 0.049 | [3] -0.022 | [4] 0.029 | [5] -0.004

TTN isoform 12 (UniProt Q8WZ42)
inactive: [1] -0.028 | [2] -0.006 | [3] -0.04 | [4] -0.031 | [5] -0.205

UBE2W isoform 3 (UniProt Q96B02)
inactive: [1] -0.13 | [2] 0.063 | [3] -0.199

TUBB1 (UniProt Q9H4B7)
inactive: [1] -0.005 | [2] 0.019 | [3] 0.008 | [4] 0.063 | [5] 0.087

TXNRD1 (UniProt Q16881)
inactive: [1] -0.003 | [2] 0.034 | [3] 0.002 | [4] -0.033 | [5] -0.034

UBE2V2 (UniProt Q15819)
inactive: [1] 0.004 | [2] -0.017 | [3] -0.016 | [4] 0.017 | [5] 0.017

TXNIP (UniProt Q9H3M7)
inactive: [1] 0.056 | [2] 0.005 | [3] 0.029 | [4] 0.016 | [5] 0.087

UBR3 isoform 4 (UniProt Q6ZT12)
inactive: [1] -0.027 | [2] -0.032 | [3] 0.009 | [4] -0.016 | [5] 0.076

UBQLN1 (UniProt Q9UMX0)
inactive: [1] -0.068 | [2] -0.03 | [3] -0.046 | [4] 0.018 | [5] 0.051

UCHL5 isoform 3 (UniProt Q9Y5K5)
inactive: [1] -0.001 | [2] 0.033 | [3] 0.01 | [4] 0.015 | [5] 0.029

TUBG1 (UniProt P23258)
inactive: [1] 0 | [2] 0.051 | [3] 0.011 | [4] 0.021 | [5] 0.067

UBR7 (UniProt Q8N806)
inactive: [1] 0.048 | [2] -0.005 | [3] 0.023 | [4] -0.036 | [5] 0.11

UBE2J2 (UniProt Q8N2K1)
inactive: [1] -0.089 | [2] -0.017 | [3] -0.029 | [4] -0.141 | [5] 0.046

UCHL5 (UniProt Q5LJA9)
inactive: [1] 0.002 | [2] -0.059 | [3] -0.022 | [4] -0.251 | [5] 0.133

UBAC1 (UniProt Q9BSL1)
inactive: [1] 0.014 | [2] -0.025 | [3] -0.024 | [4] -0.045 | [5] 0.021

UBR2 isoform 4 (UniProt Q8IWV8)
inactive: [1] 0.051 | [2] -0.005 | [3] 0.02 | [4] -0.015 | [5] 0.031

TXLNG (UniProt Q9NUQ3)
inactive: [1] 0.007 | [2] 0.009 | [3] -0.01 | [4] 0.011 | [5] -0.008

TYW3 (UniProt Q6IPR3)
inactive: [1] 0.082 | [2] 0.006 | [3] 0.065 | [4] -0.029 | [5] -0.067

TXNL4A (UniProt P83876)
inactive: [1] 0.036 | [2] -0.024 | [3] 0.046 | [4] -0.001 | [5] -0.01

UBE4A isoform 2 (UniProt Q14139)
inactive: [1] -0.016 | [2] -0.041 | [3] 0.003 | [4] 0.043 | [5] 0.051

TXNDC12 (UniProt O95881)
inactive: [1] -0.044 | [2] -0.049 | [3] -0.003 | [4] -0.017 | [5] -0.007

TWISTNB (UniProt Q3B726)
inactive: [1] -0.009 | [2] 0.031 | [3] 0.117 | [4] -0.018 | [5] 0.039

UBAC2 (UniProt Q8NBM4)
inactive: [1] -0.023 | [2] -0.128 | [3] 0.094 | [4] -0.077 | [5] -0.095

UBE2D1 (UniProt P51668)
inactive: [1] 0.056 | [2] 0.066 | [3] 0.02 | [4] -0.082 | [5] 0.016

UBE2R2 (UniProt Q712K3)
inactive: [1] -0.031 | [2] -0.015 | [3] 0.031 | [4] 0.012 | [5] 0.034

UBE2B (UniProt P63146)
inactive: [1] -0.023 | [2] 0.058 | [3] -0.034 | [4] 0.005 | [5] -0.01

UBE2I (UniProt P63279)
inactive: [1] 0.019 | [2] -0.022 | [3] -0.013 | [4] 0.004 | [5] -0.063

TUBGCP6 (UniProt Q96RT7)
inactive: [1] -0.019 | [2] 0.09 | [3] -0.03 | [4] -0.006 | [5] -0.06

UBE2H (UniProt P62256)
inactive: [1] 0.024 | [2] 0.02 | [3] 0.012 | [4] -0.046 | [5] 0.095

Four entries picked at random from the list so far:
UBE2B (UniProt P63146)
inactive: [1] -0.023 | [2] 0.058 | [3] -0.034 | [4] 0.005 | [5] -0.01

UBAC2 (UniProt Q8NBM4)
inactive: [1] -0.023 | [2] -0.128 | [3] 0.094 | [4] -0.077 | [5] -0.095

UBE2D1 (UniProt P51668)
inactive: [1] 0.056 | [2] 0.066 | [3] 0.02 | [4] -0.082 | [5] 0.016

UBE2I (UniProt P63279)
inactive: [1] 0.019 | [2] -0.022 | [3] -0.013 | [4] 0.004 | [5] -0.063

Source: the supplement of paper PMC10849652
